We go through 40 compounds from the supplement of paper PMC8846439.

This is one part of the list. Many values rest on one well or one pass, so single values are uncertain.

In this assay the test system is Trypanosoma brucei brucei bloodstream form L262P (kDNA-independent). Description: viability Z-score (nuclei count per well, median-polish normalised, relative to plate distribution); higher = more viable parasites (negative = growth inhibition). The note with it: 4 days; compound concentration: 10 µM (some Prestwick/PKE rows may be 1 µM / not distinguished).

On to `C/C(=N/O)c1ccc2ccccc2c1`, for which the “viability Z-score” value is -5.55.

Consider `O=[S](=O)(NC=1C=CC=C2C=NNC=12)C=3/C=C(/OC)C([F])=CC=3`, for which the “viability Z-score” value is -1.22.

Take `C/C1=C/C(=C/C=C1/OC)C=2N=C([S]C=2)C=3/C=C(/OC)C(=CC=3)OC`: the “viability Z-score” value is -2.71.

`[S]=C(NCC=C)N2CCC=1[S]C=CC=1[C@]2([H])C3=C/C=C(/[Cl])C=C3`: the “viability Z-score” value was -3.18.

In the case of `O=C1N(C)C(=O)C[C@]1([H])C2=C/C=C(/C)C=C2`, the “viability Z-score” value is -3.62.

With `N#C/C2=C(\N)OC=1N/N=C(/C)C=1[C@]24C(=O)N(CC/C3=C/C=CC=C3)C=5C=CC=CC4=5`, the “viability Z-score” value was -3.45.

As to `[O-][N+](=O)C2=C/C=C(/C[S]C=1NC(=NN=1)CC)C=C2`, the “viability Z-score” value was -6.22.

`O=C(NC=1C=CC([Cl])=CC=1C(=O)NC/C2=C/C(OC)=CC=C2)C=3[S]CCOC=3C`: the “viability Z-score” value is -3.66.

For the compound `CC/C2=C/C=1C(=NNC(=NC=1C=C2)C3=CC=CC=C3)C=4[S]C=CC=4`, the “viability Z-score” value is -5.89.

For the compound `O=C(NCC=1[S]C=CC=1)C[S]/C4=N/N=C(/CN2N=NC=3C=CC=CC2=3)N4C`, the “viability Z-score” value is -3.37.

Take `O=[S](=O)(C=1N=C([S]C=1[Cl])OCC)C2=C/C=C(/C)C=C2`: the “viability Z-score” value was -4.15.

Turning to `Cc1ccc([C@H]2Nc3ccccc3NC3=C2C(=O)C[C@H](c2ccccc2)C3)o1`, the “viability Z-score” value is -5.37.

For the compound `O=C(OC)C=1N=NN(C=1C[S]/C3=N/C=2C=CC=CC=2N3)C4=NO/N=C4/N`, the “viability Z-score” value was -1.94.

Consider `O=[S](=O)(N1CCCCC1)C4=C/C=C(/NC(=O)C=3C=CC(CN(C=2/C=C(/C)C(C)=CC=2)[S](=O)(=O)C)=CC=3)C=C4`, for which the “viability Z-score” value is -2.13.

For the compound `Cc1c(C(=O)N2CCOCC2)oc2c1C(=O)CC(C)(C)C2`, the “viability Z-score” value was -3.92.

With `CN(C)S(=O)(=O)c1ccc(-c2cc(C(F)(F)F)on2)s1`, the “viability Z-score” value is -3.09.

As to `C=1\2/[C@]([C@@H](OC(=O)[C@H](CC)C)C[C@@H](\C1)O)([C@@H](CC[C@H](C[C@H](CC(=O)O)O)O)[C@H](\C=C2)C)[H]` [Pravastatin], the “viability Z-score” value was -4.37.

For the compound `O=C(N/C1=C/C=C(N=C1)O/C2=C/C=C(C=C2)C(C)(C)C)C=3C(=NOC=3C)C4=C([Cl])C=C/C=C4/[Cl]`, the “viability Z-score” value is -4.38.

Turning to `N=C1C(=C([S][C@@]1(C(=O)OCC)C(=C)O)N/C2=C/C=CC=C2)[P](=O)(OCC)OCC`, the “viability Z-score” value is -7.2.

For the compound `CC(C)(C)c1ccc(C(O)CCCN2CCC(C(O)(c3ccccc3)c3ccccc3)CC2)cc1` (stereo not given) [Terfenadine], the “viability Z-score” value is -2.41.

As to `Cc1onc(-c2c(F)cccc2Cl)c1C(=O)Nc1sc2c(c1C(N)=O)CCC2`, the “viability Z-score” value is -3.25.

For the compound `C/C(=N/N=C1\N=C(O)[C@@H](CC(=O)O)S1)C(C)C`, the “viability Z-score” value was -1.91.

Consider `O=C(Cn1nc2n(c1=O)-c1cc(Cl)ccc1C1=NCCN12)OC[C@H]1CCCO1`, for which the “viability Z-score” value is -5.35.

As to `C/C(=N\OCC(=O)NNC(=O)COc1cc(C)c(Cl)cc1C(C)C)c1cccs1`, the “viability Z-score” value is -3.05.

Regarding `Nc1ncnc2c1c(I)cn2[C@H]1O[C@@H](CO)[C@H](O)[C@@H]1O` [5-Iodotubericidin], the “viability Z-score” value was -5.98.

With `CSc1sc(C(=O)Nc2cccc(C(F)(F)F)c2)cc1C#N`, the “viability Z-score” value is -2.83.

Consider `O=C(NC12CC3([H])CC([H])(C1)C[C@@]([H])(C2)C3)C=4C=CC=CC=4NC(=O)C/C5=C/C=CC=C5`, for which the “viability Z-score” value was -5.8.

Regarding `CO/C5=C/C=C(/CN1CCN(CC1)[C@]2([H])[C@@]3([H])C[C@@]4([H])C[C@]2([H])C[C@@]([H])(C3)C4)C=C5`, the “viability Z-score” value is -2.48.

Regarding `N#C/C1=C(\NC(=O)OC)[S]/C=C1/C=2/C=C(/C)C=CC=2C`, the “viability Z-score” value was -4.01.

As for `O=C(N[C@]([H])(CC=1C=CC=CC=1)C(=O)NCC/C2=C/C=CC=C2)[C@@]3([H])CC[C@@](C)([H])CC3`, the “viability Z-score” value was -2.62.

Turning to `O=C(N/C1=C(/OC2=CC=CC=C12)C(=O)NC(C)(C)C)CC(C)(C)[H]`, the “viability Z-score” value is -4.36.

For `[C@]12([C@@](C(C[C@]1([C@@]1(/C=C(\C=3\[C@@]([C@]1(CC2)[H])(CCC(/C3)=O)C)/C)[H])[H])=C)(OC(=O)C)C(=O)C)C` [Melengestrol acetate], the “viability Z-score” value was -4.74.

Take `N#C/C(=C\N1CCc2ccccc21)S(=O)(=O)Cc1ccco1`: the “viability Z-score” value is -5.

On to `CC1(C)S[C@@H]2[C@H](NC(=O)[C@H](N)c3ccc(O)cc3)C(=O)N2[C@H]1C(=O)O` [Amoxicillin], for which the “viability Z-score” value is -2.66.

Regarding `O=C(N[C@@](C)([H])C1=CC=CC=C1)[C@@]2([H])CCC2`, the “viability Z-score” value is -5.89.

As to `O=C(C=3[S]C=2/N=C(/C)C(CC(=O)C=1C=CC([Br])=CC=1)=C(C)C=2C=3N)N5C=4C=CC=CC=4[S]C=6C=CC=CC5=6`, the “viability Z-score” value is -4.33.

Take `CC(C)NCc1cccc([N+](=O)[O-])c1`: the “viability Z-score” value was -3.57.

Take `C#CCSc1nc(C)cc(=O)[nH]1`: the “viability Z-score” value was -2.74.

As for `O=C(c1cccs1)N1CCN(C(=O)c2cccc3ccccc23)CC1`, the “viability Z-score” value was -1.64.

Take `Cc1ccccc1C(=O)N1CC(=O)Nc2ccc(F)cc2[C@H]1c1ccccc1`: the “viability Z-score” value is -3.76.
